Percent effect of library compounds

Chains of the proteins cited; added tags and fusions are not shown. Residues count along the entry.
UniProt P9WNZ1, whole entry: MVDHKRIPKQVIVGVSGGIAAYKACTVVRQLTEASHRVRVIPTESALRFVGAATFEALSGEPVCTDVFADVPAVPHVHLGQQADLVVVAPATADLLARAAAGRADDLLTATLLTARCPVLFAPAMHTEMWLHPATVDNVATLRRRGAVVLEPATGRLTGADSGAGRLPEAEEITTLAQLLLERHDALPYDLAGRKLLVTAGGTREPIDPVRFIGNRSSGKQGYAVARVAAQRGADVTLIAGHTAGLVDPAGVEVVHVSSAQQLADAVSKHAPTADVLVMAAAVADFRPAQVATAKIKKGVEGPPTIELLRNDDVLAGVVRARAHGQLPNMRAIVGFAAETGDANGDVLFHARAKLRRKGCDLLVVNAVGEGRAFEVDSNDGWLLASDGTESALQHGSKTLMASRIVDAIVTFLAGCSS
UniProt P9WFT3, whole entry: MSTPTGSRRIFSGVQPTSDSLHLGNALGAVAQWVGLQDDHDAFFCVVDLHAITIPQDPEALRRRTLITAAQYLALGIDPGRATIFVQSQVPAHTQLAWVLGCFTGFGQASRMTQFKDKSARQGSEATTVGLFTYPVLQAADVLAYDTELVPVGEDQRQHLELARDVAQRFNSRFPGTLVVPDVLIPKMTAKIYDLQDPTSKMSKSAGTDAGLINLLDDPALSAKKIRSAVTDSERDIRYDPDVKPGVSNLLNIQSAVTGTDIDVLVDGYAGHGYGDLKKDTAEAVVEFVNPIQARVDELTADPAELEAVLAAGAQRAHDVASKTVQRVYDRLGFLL
UniProt A4I591, 1-473: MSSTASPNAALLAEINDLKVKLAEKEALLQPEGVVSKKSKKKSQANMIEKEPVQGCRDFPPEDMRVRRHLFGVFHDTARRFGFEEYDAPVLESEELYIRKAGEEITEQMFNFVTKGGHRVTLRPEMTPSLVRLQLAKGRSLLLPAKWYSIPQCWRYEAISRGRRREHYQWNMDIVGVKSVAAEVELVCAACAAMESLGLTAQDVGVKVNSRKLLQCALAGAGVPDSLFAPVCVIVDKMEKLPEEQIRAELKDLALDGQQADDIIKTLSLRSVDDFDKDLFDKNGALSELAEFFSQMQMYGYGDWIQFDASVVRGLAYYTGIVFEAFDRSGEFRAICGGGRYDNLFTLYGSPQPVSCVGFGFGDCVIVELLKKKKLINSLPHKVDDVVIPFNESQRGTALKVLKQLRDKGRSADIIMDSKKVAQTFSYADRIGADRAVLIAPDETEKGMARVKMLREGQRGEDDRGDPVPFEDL

Measurements from “University of Dundee, Small-Polar-MMV Screening Library” (2021), ChEMBL document CHEMBL3988442.

The filed quantity is “Percent Effect” (%). How 0% and 100% were set is not recorded. Most values in the screen are low, and negative values occur. Compounds were drawn at random from those tested, without regard to their results. Two or more numbers in one place are separate tests of the same structure; such repeats can differ widely. A dash means the value is not listed here; it may have been measured.

A: 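Enzyme assay of CoaBC with a phosphate dye (Biomol Green) read at 650 nm. Target: Coenzyme A biosynthesis protein CoaBC, Mycobacterium tuberculosis (UniProt P9WNZ1). Tested at 30 µM. Direction is inferred from only a few compounds that gave an IC50; most scored high, so higher reads as stronger inhibition. Most strong results did not repeat in a second test. Size under these conditions: about 67,000 compounds, about 40 of them at 50% or above in at least one test.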
B: 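Assay of Toxoplasma gondii numbers, read through their beta-galactosidase reporter with a colour substrate. Tested at 10 µM. Higher reads as fewer parasites (inferred from which compounds were picked for retests). About 67,000 compounds were tested under these conditions; 0.38% (about 260) showed 50% or more at least once.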
C: 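Cell assay of Leishmania donovani living inside macrophages; the read-out is not stated. Tested at 30 µM. The record gives no direction; compounds that gave an IC50 in retests scored well above the rest, so higher reads as stronger inhibition. Size under these conditions: about 69,000 compounds, about 1,000 of them at 50% or above in at least one test.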
D: 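Tryptophan-tRNA ligase, Mycobacterium tuberculosis (UniProt P9WFT3). Enzyme assay of tryptophanyl-tRNA synthetase; the read-out is not stated. Compounds at 10 µM. Higher most likely means stronger inhibition; the record gives no direction and few retests gave an IC50. Of about 65,000 compounds tested this way, about 64 (0.098%) reached 50% or more in at least one test.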
E: 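Enzyme assay of histidyl-tRNA synthetase; the read-out is not stated. Target: Histidine-tRNA ligase, Leishmania infantum (UniProt A4I591). Concentration: 30 µM. The record gives no direction; compounds that gave an IC50 in retests scored well above the rest, so higher reads as stronger inhibition. The assay is labelled LdHisRS but filed under L. infantum. Size under these conditions: about 69,000 compounds, about 410 of them at 50% or above in at least one test.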

* COc1cccc(OCC(=O)NCc2ccc3[nH]c(=O)[nH]c3c2)c1 : A: 4.187%; B: 0.1312%; C: 17.56%; D: 7.077%; E: 11.48%
* CC(=O)N1CCC(c2nc3ccc(NC4CCC4)cn3n2)CC1.O=C(O)C(F)(F)F : B: -0.1659%; C: 40.49%
* Cc1ccccc1CN(CCN(C)C)Cc1ccc(O)c(C(=O)O)c1 : A: -4.113%; B: 7.468%; C: -14.93%; D: -5.153%; E: 0%
* CCCn1nnnc1COC(=O)C1Cc2cc(Cl)ccc2O1 (stereo not shown) : A: -1.517%; B: 14.58%; C: -14.66%; D: 0.6415%; E: 13.33%
* Cc1ccc(CN2CCC3(CC(=O)N(c4cccc(F)c4)C3)C2)o1.O=C(O)C(F)(F)F (stereo not shown) : B: -1.701%; C: 39.57%
* Cn1ccnc1CN1CCOC(Cn2cccn2)C1 (stereo not shown) : A: 0.8906%; B: -11.3%; C: -15.38%; D: 1.15%; E: 9.565%
* Cc1nc(CNCC2CN(C3CC3)CCO2)cs1 (stereo not shown) : A: 1.195%; B: 14.42%; C: 9.255%; D: 35.68%; E: 17.31%
* CN(C)c1nc2c(c(N3CCC(O)CC3)n1)CN(CC1CCNC1)CC2 (stereo not shown) : A: -39.87%; B: -4.039%; C: 23.22%; D: 0.5418%; E: 25%
* Cn1cnnc1C1CCCN(C(=O)c2cc3ccccc3[nH]2)C1 (stereo not shown) : A: 4.178%; B: -2.61%; C: 11.75%; D: -8.903%; E: 2.655%
* CCOC(=O)c1nc(CN2CCN(C(C)C(=O)NC3CC3)CC2)cs1 (stereo not shown) : A: 10.07%; B: -4.502%; C: 30.52%; D: 1.474%; E: 18.31%
* CN(C)CC(=O)N1CCC2(CC(=O)N(c3cccc(C#N)c3)C2)C1.O=C(O)C(F)(F)F (stereo not shown) : B: -5.341%; C: -16.61%
* Nc1cc2c(nn1)CCN(C(=O)c1ccc(Oc3cccnc3)cc1)C2 : A: 8.448%; B: 0.3743%; C: 14.05%; D: 4.046%; E: 34.21%
* O=C(c1cnccn1)N1CCC2(CC1)CC(Oc1ccccc1)CO2 (stereo not shown) : A: 3.185%; B: 5.003%; C: 6.813%; D: 1.759%; E: -18.58%
* Cc1cc(NCc2csc(-c3ccsc3)n2)no1 : A: 3.502%; B: 14.2%; C: 9.56%; D: -9.497%; E: 15.32%
* NC(=O)[C@@H]1Cc2ccccc2CN1CCc1cccs1 : A: 3.213%; B: -49.45%; C: 3.354%; D: 2.275%; E: 16.42%
* O=C(NCc1cccnc1N1CCc2ccccc2C1)c1cc(=O)[nH][nH]1 : A: 33.81% & 24.34%; B: -15.23%; C: 21.24%; D: -0.722%; E: 50%
* Cl.Cl.Cn1cnc2c(N3CCOCC3)nc(C3CCNCC3)cc21 : B: -0.9014%; C: -34.14%
* CN(C(=O)NCc1ccsc1)C1CCN(c2ccccc2)C1=O (stereo not shown) : A: 13.04%; B: -0.773%; C: -1.988%; D: -6.24%; E: 14.68%
* COc1c(CNC2CCCOc3ccccc32)c(C(C)C)nn1C (stereo not shown) : A: -7.398%; B: 11.71%; C: 19.45%; D: -2.893%; E: 16.36%
* CCOC[C@@H]1CC[C@H]2[C@H](CCN2S(=O)(=O)Cc2ccccc2)O1 : A: 8.758%; D: 1.262%; E: 15.79%
* CCC(C)(C)n1nnnc1C(c1cccs1)N1CCc2ccccc21 (stereo not shown) : A: 4.11%; B: -18.61%; C: 36.28%; D: -7.92%; E: 1.342%
* CCc1nncn1CCNC(=O)N1CCN(Cc2ccccc2)CC1 : A: 0%; B: 2.742%; C: -12.05%; D: -4.263%; E: 2.655%
* CCC(=O)Nc1ccc(C(C)Nc2nc3c(cnn3C)c(=O)[nH]2)cc1 (stereo not shown) : A: 2.066%; B: 6.331%; C: -3.875%; D: -2.805%; E: 2.667%
* CCN(Cc1cc(Cl)ccc1OC)Cc1ncnn1CC : A: -2.903%; B: 0.2378%; C: -1.072%; D: -3.382%; E: 17.11%
* NC(=O)N1CCc2cc(C(=O)O)c(-c3ccsc3)nc2CC1.O=C(O)C(F)(F)F : B: 0.8091%; C: 14.02%

Repeated from the top, 3 entries:

| compound | A | B | C | D | E |
|---|---|---|---|---|---|
| `COc1cccc(OCC(=O)NCc2ccc3[nH]c(=O)[nH]c3c2)c1` | 4.187 | 0.1312 | 17.56 | 7.077 | 11.48 |
| `CC(=O)N1CCC(c2nc3ccc(NC4CCC4)cn3n2)CC1.O=C(O)C(F)(F)F` | - | -0.1659 | 40.49 | - | - |
| `Cc1ccccc1CN(CCN(C)C)Cc1ccc(O)c(C(=O)O)c1` | -4.113 | 7.468 | -14.93 | -5.153 | 0 |